This note sets out measurements from PMC6597245.

Amino acid sequences for entries named in this document (tags omitted). A change or cut given only in a name is not applied to a line headed by its entry.
UniProt Q8IWT6: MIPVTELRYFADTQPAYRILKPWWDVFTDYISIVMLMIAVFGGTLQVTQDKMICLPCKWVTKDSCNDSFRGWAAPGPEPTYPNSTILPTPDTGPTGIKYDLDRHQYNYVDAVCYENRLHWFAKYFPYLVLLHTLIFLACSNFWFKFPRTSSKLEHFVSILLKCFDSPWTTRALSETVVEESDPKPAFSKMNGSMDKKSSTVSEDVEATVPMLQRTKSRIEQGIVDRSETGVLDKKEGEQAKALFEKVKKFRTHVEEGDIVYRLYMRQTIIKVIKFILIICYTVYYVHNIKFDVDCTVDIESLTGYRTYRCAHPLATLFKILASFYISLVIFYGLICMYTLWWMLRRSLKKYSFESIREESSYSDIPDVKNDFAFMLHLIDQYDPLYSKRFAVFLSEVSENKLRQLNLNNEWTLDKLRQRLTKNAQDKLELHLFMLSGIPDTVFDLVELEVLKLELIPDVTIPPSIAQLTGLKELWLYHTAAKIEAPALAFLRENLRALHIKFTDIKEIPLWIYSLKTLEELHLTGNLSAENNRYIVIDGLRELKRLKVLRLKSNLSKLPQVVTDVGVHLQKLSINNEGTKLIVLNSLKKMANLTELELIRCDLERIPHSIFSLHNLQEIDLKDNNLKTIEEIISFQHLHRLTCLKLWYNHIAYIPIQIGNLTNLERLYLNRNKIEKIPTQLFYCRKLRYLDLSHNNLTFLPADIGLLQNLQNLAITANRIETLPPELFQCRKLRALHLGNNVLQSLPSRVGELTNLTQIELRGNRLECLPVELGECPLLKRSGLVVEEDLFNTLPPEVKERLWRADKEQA
UniProt Q6NSJ5: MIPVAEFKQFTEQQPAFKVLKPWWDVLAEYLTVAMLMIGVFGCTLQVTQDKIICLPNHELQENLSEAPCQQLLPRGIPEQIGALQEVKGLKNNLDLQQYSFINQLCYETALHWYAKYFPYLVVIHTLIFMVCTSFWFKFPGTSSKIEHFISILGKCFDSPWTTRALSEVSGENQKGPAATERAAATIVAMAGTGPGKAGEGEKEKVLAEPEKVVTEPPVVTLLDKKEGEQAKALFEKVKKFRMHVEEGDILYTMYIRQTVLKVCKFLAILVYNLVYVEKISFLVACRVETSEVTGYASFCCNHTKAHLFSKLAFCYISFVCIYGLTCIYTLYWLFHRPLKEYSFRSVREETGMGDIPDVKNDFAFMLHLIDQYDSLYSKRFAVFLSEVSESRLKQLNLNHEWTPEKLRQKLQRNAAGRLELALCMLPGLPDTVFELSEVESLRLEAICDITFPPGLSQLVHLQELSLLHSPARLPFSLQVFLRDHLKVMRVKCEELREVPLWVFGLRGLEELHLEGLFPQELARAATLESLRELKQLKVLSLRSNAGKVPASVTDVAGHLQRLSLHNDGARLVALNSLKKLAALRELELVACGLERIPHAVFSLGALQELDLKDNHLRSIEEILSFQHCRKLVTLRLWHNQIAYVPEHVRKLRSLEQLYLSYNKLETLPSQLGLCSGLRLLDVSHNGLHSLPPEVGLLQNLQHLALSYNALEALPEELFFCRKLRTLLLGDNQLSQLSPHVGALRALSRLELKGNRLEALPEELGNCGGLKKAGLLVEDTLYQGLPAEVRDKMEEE

For one experiment, the target named is LRRC8A-YFP (human) (UniProt Q8IWT6). The experiment in a line: FRET or BRET; acceptor photo-bleaching FRET in live HeLa cells co-expressing the CFP- and YFP-tagged proteins; YFP bleached with 515-560 nm light, change of CFP intensity against unbleached cells in the same field of view; room temperature, isotonic imaging buffer pH 7.4; without BFA, or with 5 µg/ml BFA during expression (proteins trapped in the ER). For orientation: Bioluminescence resonance energy transfer reports proximity on the nanometre scale.

The next experiment concerns the target LRRC8A-Cerulean (human) (UniProt Q8IWT6). The experiment in a line: FRET or BRET; sensitized-emission FRET (cFRET) with simultaneous whole-cell patch clamp (patch-clamp fluorometry) in HEK293 KO cells deficient for all five LRRC8 genes, Cerulean/Venus pair; isotonic and hypotonic bath solution.
Experiment [1] has as its target LRRC8A-CFP (human) (UniProt Q8IWT6). In words: FRET or BRET; sensitized-emission FRET (cFRET) in live HeLa or HEK293 cells co-expressing the CFP- and YFP-tagged proteins; room temperature; isotonic (340 mOsm) and hypotonic (250 mOsm) buffer; for A-CFP-FM2 10, 80 or 165 min after 0.5 µM D/D solubilizer.
In a further experiment the target is LRRC8A-CFP-FM2 (human) (UniProt Q8IWT6). The experiment is described as above.
In experiment [2] the target is LRRC8A^N66A,N83A-CFP (human) (UniProt Q8IWT6). The description is as above.
Experiment [3] has as its target LRRC8A-CFP (human) (UniProt Q8IWT6). The experiment in a line: FRET or BRET; acceptor photo-bleaching FRET in live HeLa cells co-expressing the CFP- and YFP-tagged proteins; YFP bleached with 515-560 nm light, change of CFP intensity against unbleached cells in the same field of view; room temperature, isotonic imaging buffer pH 7.4; without BFA, or with 5 µg/ml BFA during expression (proteins trapped in the ER).

Results are given in words; binding and its absence hold for the method and conditions named. In cells and extracts the contact can be indirect. Some entries that bind do so weakly or less than the wild type.

Turning to LRRC8E-CFP (from UniProt Q6NSJ5 1-796), the binding result with LRRC8A-YFP (human) is recorded as “binds”.

With “LRRC8E-Venus (from UniProt Q6NSJ5 1-796)”, the binding entry in the experiment with LRRC8A-Cerulean (human) is listed as “binds”.

On to LRRC8E-YFP (from UniProt Q6NSJ5 1-796), for which the binding entry (with LRRC8A-CFP (human) [1]; in the experiment with LRRC8A-CFP-FM2 (human); in experiment [2]; with LRRC8A-CFP (human) [3]) was “binds” each time.
